Assay [1] concerns the target ENTH domain mutant R114A (rat) (UniProt O88339). The assay can be described thus: atomic force microscopy; 1 µM protein, 2 h RT, on supported bilayers with PS (DOPC/DOPE/DOPS/PI(4,5)P2/Texas Red DHPE 44.9:30:20:5:0.1) on silicon dioxide, PBS, contact mode; protein clusters on the membrane; both purified.
The target is the same in assay [2]. As to the kind of experiment: SDS-resistant oligomers on SDS-PAGE after liposome co-sedimentation; 20 µM protein with 2 mg/ml LUVs that contain PS (Folch + PI(4,5)P2, or PC/PE/PS/PI(4,5)P2 with 5-20% PS), 3 h 30 °C, HEPES buffer, 205,000 x g, pellet and supernatant on SDS-PAGE; self-association on membranes; both ….
Assay [3] has as its target Rat Epsin1 WT ENTH 1-164 (rat) (UniProt O88339). The assay can be described thus: atomic force microscopy; 1 µM protein, 2 h RT, on PS-free supported bilayers (DOPC/DOPE/PI(4,5)P2/Texas Red DHPE 64.9:30:5:0.1) on silicon dioxide, PBS, contact mode; both purified.

Results are given in words; binding and its absence hold for the method and conditions named.

As to “ENTH domain mutant R114A (from UniProt O88339 1-164) (domain or fragment)”, the binding entry in assay [1] is listed as “no binding (tested: 1 µM)”; in assay [2], “no binding (tested: 20 µM)”.

B1: Rat Epsin1 WT ENTH 1-164 (domain or fragment, UniProt O88339 1-164, looked up)
chain: MSTSSLRRQMKNIVHNYSEAEIKVREATSNDPWGPSSSLMSEIADLTYNVVAFSEIMSMIWKRLNDHGKNWRHVYKAMTLMEYLIKTGSERVSQQCKENMYAVQTLKDFQYVDRDGKDQGVNVREKAKQLVALLRDEDRLREERAHALKTKEKLAQTATASSAA
notes: Epsin 1, rat, ENTH (epsin N-terminal homology) domain, residues 1-164; Expressed from pGEX-6P-2; also called ENTH domain; ENTH^WT; source: E. coli BL21(DE3), purified (GSTrap, GST cleaved with PreScission Protease, anion exchange, SEC)
Regarding B1, in assay [3], the binding entry is recorded as “no binding (condition: on PS-free membranes (1 µM ENTH))”.
